# The supplement of paper PMC10849652
# Amino acid sequences for entries named in this document (tags omitted). A change or cut given only in a name is not applied to a line headed by its entry.
# UniProt Q86X29: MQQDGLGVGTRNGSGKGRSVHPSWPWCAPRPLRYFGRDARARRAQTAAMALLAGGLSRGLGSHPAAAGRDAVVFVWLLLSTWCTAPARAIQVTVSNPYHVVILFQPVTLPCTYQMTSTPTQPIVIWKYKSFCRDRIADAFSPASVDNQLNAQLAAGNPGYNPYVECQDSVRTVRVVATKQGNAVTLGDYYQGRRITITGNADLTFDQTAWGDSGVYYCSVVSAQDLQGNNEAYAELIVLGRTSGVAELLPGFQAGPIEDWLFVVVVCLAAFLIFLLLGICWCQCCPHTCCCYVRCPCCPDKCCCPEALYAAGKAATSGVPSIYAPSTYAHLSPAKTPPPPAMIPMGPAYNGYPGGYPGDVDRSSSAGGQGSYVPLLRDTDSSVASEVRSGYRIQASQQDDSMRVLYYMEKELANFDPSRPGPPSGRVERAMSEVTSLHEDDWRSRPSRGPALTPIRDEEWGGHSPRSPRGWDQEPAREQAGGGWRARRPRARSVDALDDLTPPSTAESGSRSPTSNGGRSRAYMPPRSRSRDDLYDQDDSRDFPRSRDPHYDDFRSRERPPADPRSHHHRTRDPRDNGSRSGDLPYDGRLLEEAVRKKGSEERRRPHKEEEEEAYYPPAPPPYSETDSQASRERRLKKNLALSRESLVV
# UniProt P25791: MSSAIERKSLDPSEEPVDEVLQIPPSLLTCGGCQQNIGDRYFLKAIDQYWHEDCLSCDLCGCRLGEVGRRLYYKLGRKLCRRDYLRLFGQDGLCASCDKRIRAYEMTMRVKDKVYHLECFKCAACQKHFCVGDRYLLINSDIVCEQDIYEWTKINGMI
# UniProt Q15334: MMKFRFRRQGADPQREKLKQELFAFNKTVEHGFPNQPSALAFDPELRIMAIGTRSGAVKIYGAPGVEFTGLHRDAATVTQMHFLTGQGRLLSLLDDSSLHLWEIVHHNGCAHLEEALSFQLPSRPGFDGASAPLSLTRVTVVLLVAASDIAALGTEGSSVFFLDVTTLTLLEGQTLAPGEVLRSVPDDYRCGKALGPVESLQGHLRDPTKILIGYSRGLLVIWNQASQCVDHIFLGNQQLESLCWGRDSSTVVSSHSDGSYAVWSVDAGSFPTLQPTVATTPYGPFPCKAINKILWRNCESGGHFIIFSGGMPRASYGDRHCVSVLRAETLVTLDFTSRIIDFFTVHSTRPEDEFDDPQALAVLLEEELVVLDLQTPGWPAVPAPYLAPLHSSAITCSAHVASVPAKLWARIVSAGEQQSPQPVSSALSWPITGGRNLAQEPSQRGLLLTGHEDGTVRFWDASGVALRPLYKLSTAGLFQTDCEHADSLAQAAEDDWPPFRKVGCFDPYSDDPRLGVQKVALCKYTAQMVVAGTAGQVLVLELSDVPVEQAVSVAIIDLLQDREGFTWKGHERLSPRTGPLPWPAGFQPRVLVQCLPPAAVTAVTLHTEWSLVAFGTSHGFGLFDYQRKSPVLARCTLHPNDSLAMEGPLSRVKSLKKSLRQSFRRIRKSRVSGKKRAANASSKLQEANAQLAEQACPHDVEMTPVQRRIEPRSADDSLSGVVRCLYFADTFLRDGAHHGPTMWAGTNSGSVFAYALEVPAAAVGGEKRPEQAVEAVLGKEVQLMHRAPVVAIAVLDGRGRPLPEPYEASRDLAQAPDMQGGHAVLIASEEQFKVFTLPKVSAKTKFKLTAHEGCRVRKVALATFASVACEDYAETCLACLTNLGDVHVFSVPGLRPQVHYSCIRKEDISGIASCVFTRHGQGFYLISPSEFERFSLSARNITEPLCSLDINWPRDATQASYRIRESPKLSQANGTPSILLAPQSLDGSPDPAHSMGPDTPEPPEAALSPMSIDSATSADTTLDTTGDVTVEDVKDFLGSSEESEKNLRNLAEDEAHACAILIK
# UniProt O95202: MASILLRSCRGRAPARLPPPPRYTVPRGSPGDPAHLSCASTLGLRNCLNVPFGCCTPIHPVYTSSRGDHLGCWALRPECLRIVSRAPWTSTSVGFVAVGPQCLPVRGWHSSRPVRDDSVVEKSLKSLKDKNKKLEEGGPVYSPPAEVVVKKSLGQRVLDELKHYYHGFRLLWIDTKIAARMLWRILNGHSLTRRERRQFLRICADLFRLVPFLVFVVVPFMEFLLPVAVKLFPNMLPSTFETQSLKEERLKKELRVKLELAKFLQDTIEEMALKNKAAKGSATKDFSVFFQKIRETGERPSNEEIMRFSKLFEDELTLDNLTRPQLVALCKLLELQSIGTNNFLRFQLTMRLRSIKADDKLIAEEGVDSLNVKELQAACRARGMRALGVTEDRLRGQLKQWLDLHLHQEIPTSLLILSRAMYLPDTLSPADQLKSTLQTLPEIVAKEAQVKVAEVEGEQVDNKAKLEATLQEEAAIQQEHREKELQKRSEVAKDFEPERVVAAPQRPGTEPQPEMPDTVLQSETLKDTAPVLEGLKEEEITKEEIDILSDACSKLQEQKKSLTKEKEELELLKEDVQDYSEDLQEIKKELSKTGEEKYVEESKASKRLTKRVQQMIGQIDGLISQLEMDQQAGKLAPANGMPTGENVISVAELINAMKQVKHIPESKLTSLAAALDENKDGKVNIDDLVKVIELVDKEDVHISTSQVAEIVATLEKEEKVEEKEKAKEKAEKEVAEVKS
# UniProt O00214: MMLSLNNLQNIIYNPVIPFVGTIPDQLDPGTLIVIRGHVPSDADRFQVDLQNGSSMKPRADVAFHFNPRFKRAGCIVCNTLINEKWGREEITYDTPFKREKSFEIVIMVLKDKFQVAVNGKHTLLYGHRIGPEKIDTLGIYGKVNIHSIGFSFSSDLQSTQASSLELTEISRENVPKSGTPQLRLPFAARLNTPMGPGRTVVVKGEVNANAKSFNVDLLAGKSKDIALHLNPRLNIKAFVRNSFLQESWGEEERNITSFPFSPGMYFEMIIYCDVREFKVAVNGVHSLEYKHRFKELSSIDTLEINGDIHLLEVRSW
# UniProt Q12907: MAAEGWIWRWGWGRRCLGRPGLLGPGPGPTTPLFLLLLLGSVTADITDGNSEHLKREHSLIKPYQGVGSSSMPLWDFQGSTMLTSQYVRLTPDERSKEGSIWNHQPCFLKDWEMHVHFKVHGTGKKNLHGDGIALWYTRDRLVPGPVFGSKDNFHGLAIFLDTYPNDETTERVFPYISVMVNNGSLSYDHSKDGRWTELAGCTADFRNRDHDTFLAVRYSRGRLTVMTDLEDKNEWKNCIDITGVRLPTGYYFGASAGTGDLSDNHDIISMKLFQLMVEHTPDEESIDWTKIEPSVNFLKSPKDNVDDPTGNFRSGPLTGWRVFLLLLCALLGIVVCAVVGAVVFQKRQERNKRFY
# UniProt Q15048: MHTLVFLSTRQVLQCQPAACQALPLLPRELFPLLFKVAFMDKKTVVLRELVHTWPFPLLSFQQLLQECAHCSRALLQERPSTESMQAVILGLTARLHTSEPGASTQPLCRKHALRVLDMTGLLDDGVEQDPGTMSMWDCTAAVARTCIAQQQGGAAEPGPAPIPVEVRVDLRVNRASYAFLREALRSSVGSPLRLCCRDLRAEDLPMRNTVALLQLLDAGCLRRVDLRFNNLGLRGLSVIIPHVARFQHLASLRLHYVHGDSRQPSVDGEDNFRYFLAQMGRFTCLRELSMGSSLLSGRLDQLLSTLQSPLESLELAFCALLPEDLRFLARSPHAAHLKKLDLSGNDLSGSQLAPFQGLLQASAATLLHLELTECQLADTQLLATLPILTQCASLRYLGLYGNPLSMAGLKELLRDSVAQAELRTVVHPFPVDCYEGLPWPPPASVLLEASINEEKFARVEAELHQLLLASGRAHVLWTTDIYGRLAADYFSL
# UniProt Q92539: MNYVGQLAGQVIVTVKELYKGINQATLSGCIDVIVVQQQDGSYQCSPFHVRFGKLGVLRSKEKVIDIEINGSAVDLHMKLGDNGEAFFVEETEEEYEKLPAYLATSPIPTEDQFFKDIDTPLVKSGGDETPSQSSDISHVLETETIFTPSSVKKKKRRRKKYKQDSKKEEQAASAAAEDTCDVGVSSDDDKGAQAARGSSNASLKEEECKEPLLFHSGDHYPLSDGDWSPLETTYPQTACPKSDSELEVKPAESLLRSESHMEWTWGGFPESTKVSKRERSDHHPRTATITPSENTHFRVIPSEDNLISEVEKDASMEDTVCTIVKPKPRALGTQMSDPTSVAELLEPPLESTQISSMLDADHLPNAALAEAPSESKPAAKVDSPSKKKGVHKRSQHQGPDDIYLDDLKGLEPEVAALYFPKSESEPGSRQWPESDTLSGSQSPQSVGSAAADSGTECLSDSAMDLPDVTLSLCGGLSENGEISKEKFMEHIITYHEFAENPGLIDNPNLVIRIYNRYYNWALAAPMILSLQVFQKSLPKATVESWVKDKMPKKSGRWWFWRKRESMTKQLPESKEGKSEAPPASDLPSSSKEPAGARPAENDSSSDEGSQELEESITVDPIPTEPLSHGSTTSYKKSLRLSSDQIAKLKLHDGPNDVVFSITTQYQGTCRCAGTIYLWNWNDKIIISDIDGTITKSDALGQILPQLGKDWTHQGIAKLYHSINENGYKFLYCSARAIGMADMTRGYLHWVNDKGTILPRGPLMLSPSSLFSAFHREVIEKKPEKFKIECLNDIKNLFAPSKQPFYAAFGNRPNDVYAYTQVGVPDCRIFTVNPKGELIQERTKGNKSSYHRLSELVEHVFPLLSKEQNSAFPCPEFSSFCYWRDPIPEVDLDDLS
# UniProt P49917: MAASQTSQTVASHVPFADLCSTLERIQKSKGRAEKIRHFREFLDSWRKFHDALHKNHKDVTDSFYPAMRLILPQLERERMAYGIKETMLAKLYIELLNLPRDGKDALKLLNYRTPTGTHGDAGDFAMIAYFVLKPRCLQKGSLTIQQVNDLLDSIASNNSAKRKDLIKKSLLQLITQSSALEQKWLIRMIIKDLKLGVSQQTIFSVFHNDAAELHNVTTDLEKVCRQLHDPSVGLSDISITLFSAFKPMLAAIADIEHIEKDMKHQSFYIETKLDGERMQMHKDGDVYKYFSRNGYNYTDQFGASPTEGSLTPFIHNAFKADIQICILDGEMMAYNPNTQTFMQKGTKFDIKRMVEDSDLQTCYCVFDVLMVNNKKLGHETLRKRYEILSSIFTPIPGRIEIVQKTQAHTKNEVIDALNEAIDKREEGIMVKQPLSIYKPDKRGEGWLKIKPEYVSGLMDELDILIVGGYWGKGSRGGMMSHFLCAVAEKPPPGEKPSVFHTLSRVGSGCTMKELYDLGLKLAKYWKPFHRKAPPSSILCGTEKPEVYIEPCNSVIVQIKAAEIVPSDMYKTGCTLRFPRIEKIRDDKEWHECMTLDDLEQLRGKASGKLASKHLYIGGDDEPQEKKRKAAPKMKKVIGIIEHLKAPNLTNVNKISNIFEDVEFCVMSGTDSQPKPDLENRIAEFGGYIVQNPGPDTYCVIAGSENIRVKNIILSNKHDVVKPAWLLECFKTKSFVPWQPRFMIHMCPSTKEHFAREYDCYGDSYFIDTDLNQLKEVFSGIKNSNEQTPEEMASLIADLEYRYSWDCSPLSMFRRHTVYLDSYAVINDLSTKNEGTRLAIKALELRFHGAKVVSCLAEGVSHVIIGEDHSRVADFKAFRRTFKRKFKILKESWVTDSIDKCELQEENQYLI
# UniProt P18858, whole entry, looked up: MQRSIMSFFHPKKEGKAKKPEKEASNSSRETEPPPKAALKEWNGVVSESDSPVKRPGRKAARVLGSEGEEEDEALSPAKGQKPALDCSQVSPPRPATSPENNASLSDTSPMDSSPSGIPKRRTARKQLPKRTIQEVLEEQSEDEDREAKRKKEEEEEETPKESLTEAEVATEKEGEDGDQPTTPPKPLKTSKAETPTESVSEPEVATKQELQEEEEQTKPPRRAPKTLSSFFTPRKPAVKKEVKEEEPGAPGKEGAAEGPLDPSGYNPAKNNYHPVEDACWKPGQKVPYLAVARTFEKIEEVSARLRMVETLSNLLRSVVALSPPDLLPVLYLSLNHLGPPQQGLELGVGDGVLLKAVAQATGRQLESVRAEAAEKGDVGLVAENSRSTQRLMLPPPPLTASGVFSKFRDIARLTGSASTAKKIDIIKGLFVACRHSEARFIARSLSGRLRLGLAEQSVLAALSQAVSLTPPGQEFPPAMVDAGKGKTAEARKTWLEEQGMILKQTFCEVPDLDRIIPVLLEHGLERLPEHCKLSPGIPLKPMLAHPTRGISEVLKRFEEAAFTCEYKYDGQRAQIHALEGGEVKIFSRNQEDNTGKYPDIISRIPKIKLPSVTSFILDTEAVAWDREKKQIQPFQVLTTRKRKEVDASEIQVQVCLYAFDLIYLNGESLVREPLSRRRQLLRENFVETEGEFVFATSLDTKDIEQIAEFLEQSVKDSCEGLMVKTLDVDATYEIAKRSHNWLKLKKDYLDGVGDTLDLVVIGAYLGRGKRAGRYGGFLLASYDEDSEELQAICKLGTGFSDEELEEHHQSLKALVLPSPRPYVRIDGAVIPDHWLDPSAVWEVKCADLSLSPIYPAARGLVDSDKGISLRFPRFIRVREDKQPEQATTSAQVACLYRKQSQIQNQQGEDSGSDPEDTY
# The list shows a part of the results.
# Columns and labels:
# Assay in all cases: log2 fold change, soluble protein after heating vs DMSO (PISA); higher = thermal stabilisation; K562 lysate, 10 uM; active = over 0.2 and 3.5 SD of the protein, either way, in both replicates (recomputed)
# nilotinib = compound: Cc1cn(-c2cc(NC(=O)c3ccc(C)c(Nc4nccc(-c5cccnc5)n4)c3)cc(C(F)(F)F)c2)cn1 [nilotinib]
# How it was run: (§1)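 K562 pellets were dounce-homogenised in PBS pH 7.4 containing 1 mM MgCl2, and the crude extract, at 1 mg/mL protein, was exposed to 10 μM compound for 30 min. Aliquots were heated for 3 min across 48°C-58°C, pooled, brought to 0.5% NP-40 at 4°C and spun at 21,000xg for 90 min, with the supernatant taken as soluble protein. TMTpro 16plex LC-MS/MS with equalised channel sums quantified that protein. Values are log-two fold changes in thermal stability relative to solvent controls, taken from duplicates.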
# [1] = compound: Cc1nc(Nc2n[nH]c3c2CN(C(=O)N[C@H](CN(C)C)c2ccccc2)C3(C)C)c2sccc2n1
# How it was run: as §1
# dasatinib = compound: Cc1nc(Nc2ncc(C(=O)Nc3c(C)cccc3Cl)s2)cc(N2CCN(CCO)CC2)n1 [dasatinib]
# How it was run: as §1
# [2] = compound: Cc1ncc(-c2ccnc(Nc3ccc(S(C)(=O)=O)cc3)n2)n1C(C)C
# How it was run: as §1
# [3] = compound: Cn1cc(-c2ccc3c(c2)CCN3C(=O)Cc2cccc(C(F)(F)F)c2)c2c(N)ncnc21
# How it was run: as §1
# quisinostat = compound: Cn1cc(CNCC2CCN(c3ncc(C(=O)NO)cn3)CC2)c2ccccc21 [quisinostat]
# How it was run: as §1
# tipifarnib = compound: Cn1cncc1[C@@](N)(c1ccc(Cl)cc1)c1ccc2c(c1)c(-c1cccc(Cl)c1)cc(=O)n2C [tipifarnib]
# How it was run: as §1
# [4] = compound: NC(=O)Nc1cc(-c2cccc(F)c2)sc1C(=O)N[C@H]1CCCNC1
# How it was run: as §1
# [5] = compound: NC(=O)c1cnc(N[C@@H]2CCCC[C@@H]2N)nc1Nc1cccc(-n2nccn2)c1
# How it was run: as §1
# [6] = compound: NC1(c2ccc(-c3nc4ccn5c(=O)[nH]nc5c4cc3-c3ccccc3)cc2)CCC1
# How it was run: as §1
# [7] = compound: NCC(=O)Nc1ccc(-n2nc(C(F)(F)F)cc2-c2ccc3c(ccc4ccccc43)c2)cc1
# How it was run: as §1
# vorinostat = compound: O=C(CCCCCCC(=O)Nc1ccccc1)NO [vorinostat]
# How it was run: as §1
# silmitasertib = compound: O=C(O)c1ccc2c(c1)nc(Nc1cccc(Cl)c1)c1ccncc12 [silmitasertib]
# How it was run: as §1
# [8] = compound: O=C1NC(=O)C(c2cnc3ccccn23)=C1c1cn2c3c(cc(F)cc13)CN(C(=O)N1CCCCC1)CC2
# How it was run: as §1
# entospletinib = compound: c1cn2cc(-c3ccc4cn[nH]c4c3)nc(Nc3ccc(N4CCOCC4)cc3)c2n1 [entospletinib]
# How it was run: as §1
Target,log2 fold change (nilotinib),log2 fold change [1],log2 fold change (dasatinib),log2 fold change [2],log2 fold change [3],log2 fold change (quisinostat),log2 fold change (tipifarnib),log2 fold change [4],log2 fold change [5],log2 fold change [6],log2 fold change [7],log2 fold change (vorinostat),log2 fold change (silmitasertib),log2 fold change [8],log2 fold change (entospletinib)
LGALS1 (UniProt P09382),inactive: 0.037,inactive: 0.033,inactive: 0.002,inactive: 0.073,inactive: -0.028,inactive: -0.001,inactive: 0.024,inactive: -0.034,inactive: -0.015,inactive: 0.002,inactive: -0.089,inactive: 0.124,inactive: -0.029,inactive: 0.036,inactive: -0.01
LSR (UniProt Q86X29),inactive: 0.011,inactive: -0.05,inactive: 0.037,inactive: -0.094,inactive: -0.005,inactive: 0.013,inactive: -0.04,inactive: 0.048,inactive: 0.001,inactive: 0.004,inactive: 0.018,inactive: 0.057,inactive: -0.034,inactive: -0.035,inactive: 0.041
LMO2 isoform 3 (UniProt P25791),inactive: 0.067,inactive: -0.051,inactive: -0.29,inactive: 0.251,inactive: -0.154,inactive: -0.024,inactive: 0,inactive: 0.028,inactive: -0.021,inactive: 0.052,inactive: -0.024,inactive: -0.042,inactive: 0.018,inactive: -0.071,inactive: 0.032
LDAH isoform 2 (UniProt Q9H6V9),inactive: -0.062,inactive: 0.023,inactive: -0.071,inactive: -0.003,inactive: 0.017,inactive: -0.022,inactive: -0.077,inactive: 0.037,inactive: -0.009,active: 0.307,inactive: -0.017,inactive: -0.13,inactive: 0.064,inactive: 0.033,inactive: -0.029
LLGL1 (UniProt Q15334),inactive: 0,inactive: 0.149,inactive: -0.011,inactive: 0.052,inactive: 0.016,inactive: -0.046,inactive: -0.077,inactive: 0.159,inactive: 0.053,inactive: 0.075,inactive: 0.078,active: -0.524,inactive: 0.077,inactive: -0.046,inactive: 0.042
LPCAT1 (UniProt Q8NF37),inactive: -0.039,inactive: 0.015,inactive: -0.084,inactive: 0.014,inactive: -0.045,inactive: 0.016,inactive: 0.046,inactive: 0.008,inactive: 0.053,inactive: 0.033,inactive: -0.011,inactive: 0.027,inactive: -0.076,inactive: -0.026,inactive: -0.057
LETM1 (UniProt O95202),inactive: 0.038,inactive: -0.021,inactive: -0.008,inactive: 0.048,inactive: 0.007,inactive: 0.043,inactive: 0.008,inactive: -0.012,inactive: -0.011,inactive: -0.024,inactive: -0.041,inactive: 0.084,inactive: -0.021,inactive: -0.006,inactive: 0.009
"LRBA, A0A494BZW2",inactive: -0.305,inactive: -0.166,inactive: -0.099,inactive: 0.051,inactive: 0.037,inactive: -0.87,inactive: 0.041,inactive: -0.222,inactive: -0.031,inactive: -0.001,inactive: 0.026,inactive: -0.163,inactive: 0,inactive: -0.268,inactive: 0.099
LGALS8 isoform 2 (UniProt O00214),inactive: -0.01,inactive: 0.054,inactive: 0.025,inactive: 0.03,inactive: -0.011,inactive: -0.069,inactive: -0.007,inactive: 0.026,inactive: -0.005,inactive: -0.022,inactive: -0.034,inactive: -0.01,inactive: 0.009,inactive: 0.004,inactive: -0.013
LMAN2 (UniProt Q12907),inactive: 0.006,inactive: -0.017,inactive: 0.02,inactive: 0.002,inactive: -0.007,inactive: -0.004,inactive: -0.048,inactive: -0.005,inactive: 0,inactive: 0.002,inactive: 0.006,inactive: 0.135,inactive: 0.003,inactive: 0.012,inactive: -0.006
LRRC14 (UniProt Q15048),inactive: -0.017,inactive: 0.025,inactive: -0.055,inactive: -0.02,inactive: 0.058,inactive: -0.007,inactive: 0.03,inactive: 0.028,inactive: 0.02,inactive: -0.024,inactive: 0.038,inactive: -0.304,inactive: 0.014,inactive: -0.031,inactive: -0.014
LDHB (UniProt P07195),inactive: 0.018,inactive: -0.008,inactive: 0.016,inactive: 0.006,inactive: -0.029,inactive: -0.015,inactive: 0.032,inactive: 0.005,inactive: -0.014,inactive: 0.004,inactive: 0.02,inactive: 0.147,inactive: -0.023,inactive: 0.015,inactive: 0.017
LRWD1 (UniProt Q9UFC0),inactive: 0.026,inactive: -0.05,inactive: -0.055,inactive: 0.017,inactive: 0.02,inactive: -0.132,inactive: 0.007,inactive: 0.053,inactive: 0.017,inactive: -0.033,inactive: -0.022,active: -0.322,inactive: -0.008,inactive: -0.011,inactive: 0.006
LIN7C (UniProt Q9NUP9),inactive: 0.003,inactive: -0.014,inactive: 0.004,inactive: -0.025,inactive: 0,inactive: -0.026,inactive: 0.028,inactive: -0.012,inactive: 0.007,inactive: 0.022,inactive: -0.005,inactive: 0.01,inactive: -0.022,inactive: -0.053,inactive: -0.025
LPIN2 (UniProt Q92539),inactive: 0.01,inactive: -0.062,inactive: -0.045,inactive: -0.051,inactive: 0,inactive: 0.003,inactive: 0.022,inactive: -0.012,inactive: -0.033,inactive: -0.008,inactive: 0.046,inactive: -0.123,inactive: -0.016,inactive: 0.01,inactive: -0.069
LMAN2L isoform 2 (UniProt Q9H0V9),inactive: 0.028,inactive: 0.042,inactive: -0.035,inactive: 0.073,inactive: -0.023,inactive: -0.027,inactive: -0.059,inactive: 0.003,inactive: 0.001,inactive: -0.006,inactive: 0.047,inactive: 0.137,inactive: -0.05,inactive: 0.044,inactive: 0.038
LBR (UniProt Q14739),inactive: -0.026,inactive: 0.015,inactive: -0.04,inactive: -0.004,inactive: 0.003,inactive: 0.065,inactive: -0.03,inactive: -0.048,inactive: 0.006,inactive: 0.08,inactive: -0.121,inactive: 0.17,inactive: -0.001,inactive: -0.076,inactive: -0.009
LIG4 (UniProt P49917),inactive: 0.02,inactive: -0.072,inactive: 0.018,inactive: -0.008,inactive: -0.026,inactive: -0.085,inactive: 0.038,inactive: 0.066,inactive: -0.045,inactive: -0.005,inactive: -0.041,inactive: -0.368,inactive: 0.107,inactive: -0.039,inactive: 0.062
LMNB2 (UniProt Q03252),inactive: -0.03,inactive: 0.015,inactive: -0.003,inactive: -0.02,inactive: 0.073,inactive: -0.001,inactive: -0.068,inactive: -0.005,inactive: 0.02,inactive: 0.015,inactive: -0.023,inactive: 0.072,inactive: 0.079,inactive: -0.038,inactive: 0.015
LASP1 (UniProt Q14847),inactive: -0.067,inactive: 0.027,inactive: -0.014,inactive: 0.009,inactive: -0.003,inactive: -0.002,inactive: 0.062,inactive: -0.008,inactive: -0.009,inactive: 0.048,inactive: 0.039,inactive: 0.152,inactive: -0.006,inactive: -0.006,inactive: 0.007
LIG1 (UniProt P18858),inactive: -0.002,inactive: -0.001,inactive: 0.022,inactive: 0,inactive: 0.037,inactive: -0.017,inactive: 0.001,inactive: 0.013,inactive: 0.015,inactive: 0,inactive: 0.001,inactive: -0.038,inactive: 0.005,inactive: -0.019,inactive: 0

# Individual results from the entries so far:
# Under log2 fold change [2], LASP1 (UniProt Q14847) reads inactive: 0.009
# Under log2 fold change [4], LDAH isoform 2 (UniProt Q9H6V9) reads inactive: 0.037
